Test results taken from article PMC8274477.
No constants are given. Whether binding was seen depends on the method and setting. Some results given as binding are weak or reduced against the parent protein; the word gives no strength.

Chains of the proteins cited; added tags and fusions are not shown.
UniProt Q9Y2J4: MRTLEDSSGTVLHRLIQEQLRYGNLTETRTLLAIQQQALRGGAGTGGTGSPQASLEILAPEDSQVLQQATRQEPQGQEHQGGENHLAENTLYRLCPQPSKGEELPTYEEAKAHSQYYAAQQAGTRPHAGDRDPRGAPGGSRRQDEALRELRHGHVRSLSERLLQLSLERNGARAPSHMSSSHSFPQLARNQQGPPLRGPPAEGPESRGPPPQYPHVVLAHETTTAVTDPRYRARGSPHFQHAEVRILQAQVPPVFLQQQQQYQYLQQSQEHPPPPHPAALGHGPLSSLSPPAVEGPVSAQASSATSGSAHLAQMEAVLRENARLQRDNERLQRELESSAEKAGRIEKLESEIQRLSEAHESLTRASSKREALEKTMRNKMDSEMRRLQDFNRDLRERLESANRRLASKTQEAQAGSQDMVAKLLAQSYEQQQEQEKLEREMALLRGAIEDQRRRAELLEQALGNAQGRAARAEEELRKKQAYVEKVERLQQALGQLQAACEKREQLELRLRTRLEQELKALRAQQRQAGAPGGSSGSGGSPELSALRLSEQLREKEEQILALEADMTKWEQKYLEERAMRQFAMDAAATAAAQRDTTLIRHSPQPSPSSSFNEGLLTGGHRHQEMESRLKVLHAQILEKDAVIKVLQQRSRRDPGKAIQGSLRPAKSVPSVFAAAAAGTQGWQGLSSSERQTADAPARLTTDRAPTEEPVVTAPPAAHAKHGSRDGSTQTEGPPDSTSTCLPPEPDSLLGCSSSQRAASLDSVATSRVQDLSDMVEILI
UniProt Q969G3: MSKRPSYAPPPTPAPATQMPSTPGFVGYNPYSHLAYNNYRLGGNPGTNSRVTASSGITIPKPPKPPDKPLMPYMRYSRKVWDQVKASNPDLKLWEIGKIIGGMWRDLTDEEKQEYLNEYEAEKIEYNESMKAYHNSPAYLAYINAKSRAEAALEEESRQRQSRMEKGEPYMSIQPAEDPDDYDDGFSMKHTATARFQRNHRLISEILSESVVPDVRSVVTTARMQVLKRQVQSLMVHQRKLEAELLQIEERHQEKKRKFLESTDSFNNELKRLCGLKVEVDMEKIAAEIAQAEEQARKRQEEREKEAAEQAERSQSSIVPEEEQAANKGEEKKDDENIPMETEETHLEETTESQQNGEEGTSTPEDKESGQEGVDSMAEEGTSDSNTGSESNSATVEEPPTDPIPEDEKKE
UniProt O00338: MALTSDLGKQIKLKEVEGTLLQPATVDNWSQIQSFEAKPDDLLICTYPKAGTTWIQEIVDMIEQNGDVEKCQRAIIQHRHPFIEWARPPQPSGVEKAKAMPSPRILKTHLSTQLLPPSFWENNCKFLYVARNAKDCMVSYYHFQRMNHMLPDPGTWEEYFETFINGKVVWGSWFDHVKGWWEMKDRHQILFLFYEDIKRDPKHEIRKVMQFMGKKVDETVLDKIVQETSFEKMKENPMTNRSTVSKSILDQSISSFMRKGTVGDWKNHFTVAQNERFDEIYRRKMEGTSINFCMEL

What was measured:
Assay in all cases: peptide or protein array; HuProt human proteome microarray; 5 ug/5 ml biotin-labelled LUBAC or OTULIN in solution, 1 h at room temperature; Cy5-streptavidin, scanned at 635 nm; BSA as negative control; hits: Z-score >= 3 and I_(Mean_Ratio) >= 1.4; both purified
[1] = biological target: T1, ACO1 (human) (UniProt P21399)
T1 sequence: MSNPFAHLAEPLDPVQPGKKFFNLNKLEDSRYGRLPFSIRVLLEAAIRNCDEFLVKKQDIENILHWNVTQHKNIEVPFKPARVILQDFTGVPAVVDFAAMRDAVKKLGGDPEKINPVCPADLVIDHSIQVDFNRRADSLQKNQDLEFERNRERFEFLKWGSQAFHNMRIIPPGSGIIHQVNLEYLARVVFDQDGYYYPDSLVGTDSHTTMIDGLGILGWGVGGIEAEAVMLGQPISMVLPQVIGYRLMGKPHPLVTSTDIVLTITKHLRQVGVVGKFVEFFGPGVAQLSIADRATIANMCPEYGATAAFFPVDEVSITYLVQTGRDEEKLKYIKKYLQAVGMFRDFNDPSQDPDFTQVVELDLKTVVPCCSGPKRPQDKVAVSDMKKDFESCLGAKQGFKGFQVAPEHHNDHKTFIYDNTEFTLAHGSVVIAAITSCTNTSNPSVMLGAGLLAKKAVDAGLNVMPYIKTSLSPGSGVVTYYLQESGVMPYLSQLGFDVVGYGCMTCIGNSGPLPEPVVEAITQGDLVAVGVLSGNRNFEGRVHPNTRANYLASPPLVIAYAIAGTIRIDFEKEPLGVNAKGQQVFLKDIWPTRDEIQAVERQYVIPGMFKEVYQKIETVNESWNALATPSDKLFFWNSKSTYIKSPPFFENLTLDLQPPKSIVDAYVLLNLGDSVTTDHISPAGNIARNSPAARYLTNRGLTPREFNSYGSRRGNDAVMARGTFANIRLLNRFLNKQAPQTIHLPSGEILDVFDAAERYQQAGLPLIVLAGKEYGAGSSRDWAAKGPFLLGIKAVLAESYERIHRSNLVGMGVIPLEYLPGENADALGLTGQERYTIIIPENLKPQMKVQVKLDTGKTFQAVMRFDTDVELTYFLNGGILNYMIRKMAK

[2] = biological target: AMOTL2 (human) (UniProt Q9Y2J4)
[3] = biological target: T2, CRY2 (human) (UniProt Q49AN0)
T2 sequence: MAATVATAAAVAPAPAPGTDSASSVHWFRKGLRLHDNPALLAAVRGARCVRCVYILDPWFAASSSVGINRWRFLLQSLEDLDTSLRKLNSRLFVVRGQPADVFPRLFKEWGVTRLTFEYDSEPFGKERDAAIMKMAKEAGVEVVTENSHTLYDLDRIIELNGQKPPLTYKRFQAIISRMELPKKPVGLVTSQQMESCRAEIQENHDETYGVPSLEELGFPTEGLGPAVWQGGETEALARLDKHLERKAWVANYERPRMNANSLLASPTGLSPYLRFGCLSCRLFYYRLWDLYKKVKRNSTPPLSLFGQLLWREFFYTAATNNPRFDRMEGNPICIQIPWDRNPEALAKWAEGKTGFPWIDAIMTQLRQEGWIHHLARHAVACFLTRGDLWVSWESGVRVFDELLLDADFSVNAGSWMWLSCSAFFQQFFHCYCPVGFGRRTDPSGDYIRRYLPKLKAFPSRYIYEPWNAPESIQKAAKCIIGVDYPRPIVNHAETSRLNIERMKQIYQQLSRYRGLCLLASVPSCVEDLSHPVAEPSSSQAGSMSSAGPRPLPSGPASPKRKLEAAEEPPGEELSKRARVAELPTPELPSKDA

[4] = biological target: T3, FOXP4 (human) (UniProt Q8IVH2)
T3 sequence: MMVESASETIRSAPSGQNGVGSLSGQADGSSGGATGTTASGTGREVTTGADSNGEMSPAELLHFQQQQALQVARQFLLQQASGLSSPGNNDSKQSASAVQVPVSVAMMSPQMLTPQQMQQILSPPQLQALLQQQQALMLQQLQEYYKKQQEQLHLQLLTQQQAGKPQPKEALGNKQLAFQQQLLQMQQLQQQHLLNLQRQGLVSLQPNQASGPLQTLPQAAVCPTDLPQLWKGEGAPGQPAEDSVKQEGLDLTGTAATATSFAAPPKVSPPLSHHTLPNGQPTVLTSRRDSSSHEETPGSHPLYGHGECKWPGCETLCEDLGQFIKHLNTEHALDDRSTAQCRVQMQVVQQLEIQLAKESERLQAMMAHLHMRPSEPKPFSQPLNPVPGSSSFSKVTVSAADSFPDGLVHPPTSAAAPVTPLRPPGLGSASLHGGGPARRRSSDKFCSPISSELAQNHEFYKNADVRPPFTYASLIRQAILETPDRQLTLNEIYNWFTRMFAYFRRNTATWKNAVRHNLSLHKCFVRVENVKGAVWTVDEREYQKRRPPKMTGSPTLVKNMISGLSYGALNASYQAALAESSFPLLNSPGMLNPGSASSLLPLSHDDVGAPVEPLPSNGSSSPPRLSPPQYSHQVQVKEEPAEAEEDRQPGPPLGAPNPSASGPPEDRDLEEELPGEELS

[5] = biological target: SMARCE1 (human) (UniProt Q969G3)
[6] = biological target: SULT1C2 (human) (UniProt O00338)

- binding [1]: binds
- binding [2]: binds
- binding [3]: binds
- binding [4]: binds
- binding [5]: binds
- binding [6]: binds
Substance: linear ubiquitin chain assembly complex (LUBAC), purified as HIS-tagged HOIP with the subunit HOIL-1, biotin-labelled (from UniProt Q96EP0 1-1072; Q9BYM8 1-510)
